Measured values published in patent publication US7125891B2, “Tripeptidyl peptidase inhibitors” (Janssen Pharmaceutica N.V., priority 2000, dated 2006).
Structures can show the parent of a compound that is named as a salt. Some entries share one result that the patent states for a list of compounds.

Molecular target: Tripeptidyl Peptidase II (TPP II) (UniProt Q64560)
Assay: Inhibition of Tripeptidyl Peptidase II (TPP II)
Type: biochemical
Conditions: read-out: IC50 value, i.e. the concentration needed to provide 50% inhibition; 15 μM AAF-AMC as substrate, 50 mM potassium phosphate buffer pH 7.5, 1% DMSO, fluorescence

Row | SMILES | IC50
1 | CCCc1nc(C2Cc3ccccc3N2C(=O)CN)no1 (stereo not drawn) [Compound 90, 2,3-dihydro-β-oxo-2-(5-propyl-1,2,4-oxadiazol-3-yl)-1H-indole-1-ethanamine trifluoroacetate (1:1)] | ≤ 10 µM
2 | CCCc1nc(C2Cc3ccccc3N2C(=O)CN)n[nH]1 (stereo not drawn) [Compound 92, 2,3-dihydro-β-oxo-2-(5-propyl-1H-1,2,4-triazol-3-yl)-1H-indole-1-ethanamine trifluoroacetate (1:1)] | ≤ 10 µM
